# Measurements as given in doi:10.1101/2021.09.13.460056.
# No constants are given. Whether binding was seen depends on the method and setting. Binding seen in cells or lysates may run through a third protein. Here binding means that the protein was enriched with, or labelled near, the bait; the list need not be complete. No binding means not detected with the bait.
# Target: DRBD18 with a C-terminal TAP (tandem affinity purification) tag (Trypanosoma brucei)
# Test: affinity purification with mass spectrometry
row,Binder,binding
1,"MKT1 (protein, UniProt Q587E3 1-735) MYPRHDDVSLFQRFVNDHKLEEKGLPLYQLAQLEGTDQVMLGVDGTKIIDMITQAVREREKMAIYTYTTPYTVYEKINEFRTMFQSIKNCTPVFVFNGIQYSPDSAEEFGREKNVVPSEVAALTGTDSSRLSNTTNVRFAEIHKKTANRFVVEEDVEGQIIRIFRSEFKNTIRAPYLAWAQLSSFRHCNHRHISEVYGCLELLAFPGIDRVVTNINPTRGTFDVVYKARVLEAARLSEEDLSSLILVESRSRVMRTVTLKFSSLEDMIKKVVRYKGSTIGASFAQQLHEEAIRASEANRMRASNQRGAAFRNLSAFASPVLTLTPPHCLPLHFLYGIPGFPHADAESFVGLPLPPVLYYIMSAGLLSPSLFAAVSQETVVDDWPLVDSIKYRDVAETVLPLRVQTIYQLAWTMSRGLGSISWFRRYNVLPARVSKLHVPPAIQLDGWALHSVTVPRGLHLVDVMEFAHLACSVDQVIYNTMEETYAAILLQSLDLLGYLTHETQDLHEEGQSSEPSTFGRALQLCSVPTLSEYTVLLIELARTNAISTEPFRITTEEVSPRDTPRDIVFASRVLSIIPLNVSGPWTAPIDAELAAFSMLSRMISRSIRQLLEAITTLMFSKGRTHVPLHRIGEIQRLLPFSTPVEFGCGVLVEYMLMKDKCTLKDLEEAFPECTYLRHDLATLFYFWDLAVQVLQRIETKENFCVDQHCLSSANERMKRAQKNLNILTGVRETYY",no binding
2,"LSM12 (protein, UniProt Q38E83 1-190) MPVCNNDSQLIGLGVSVTLADDTTVNGTVYTYNSSEGLLVLFQGFSGSNPNVKIIRTPFIKEVTALRDNEEKLPPQLEAKARLPSMQAARDRSLFKHASSQLRNAKDKRNQLLQTDDQKTPIAALDTLIKLERIYPDIHWDKDAGVIRFNQDVVVKGKPDWTSPAVVIAEGAGDISRSLMERVQKTLSKK",no binding
3,"XAC1 (protein, UniProt Q57Y88 1-117) MSKAPSQPAKKWMSARTLAKSEDATNRKSNTAAPASQPSQQPASVMHERPTPPPPAPVQLPQSVFFERQEAVDTLSNLYRNAQSVKKIETGPAAFEARDISKVHEELMDCLRPAAAA",no binding
4,"PBP1 (protein, UniProt Q57UZ7 1-550) MEGSHSSNMERLEYLYLNLVGQVVQVRLVDDMCVEGLFVACTDVDAETDAGIMICCTRNLASAKRSPLSPSCVNFTDDLFIPYQSIVMIEVQNAKIRTETPGRPDTGRADFSATKFDWADDGVSELLESEPHQTGTWNQFEANEKSFGVKTTYKEEFYTTRLDHSKITEEQRAQADRLAREIESSSTRGIAHRMEREECLHDDEGLDEGQLYSDVHRPQEKKPPYVPPSTGGRKLVNEPPPVPAAAAPATAPTTAPAAAPAPAAAPPAAAPAAAAPPPPPAATSMADDGSMRHKRMNEDPHHMQYDANQTAAGFNPAAAPYTPMKPGAAVPVVDFLASLADAISNNDMCYDCEPHWPGMCNLFYDQDDSSYSQQNYEAAAMPPSHSMNMHMYVNSQPNIPNAHRGYQGPLGRVPHNQSMPMHHMQGQGFHHEMHHHQAFHGMGNYSSQHHNPPIQEYAPHKGQQGVVSRPGMRQGKGGGASRVEPQQPVSANTASSPPPVPTVDSAPNEVKPPAKLQRGRGMAAFTKGDMDGDSGATTNATGGPKKRVGK",no binding
